Our source for the binding values is paper doi:10.1101/2023.10.18.561931.

No constants are given. Whether binding was seen depends on the method and setting.

The target of this test is E. coli CpxA sensor domain corresponding to residues 31-163 (E. coli) (UniProt P0AE82). Nature of the test: crystal structure.

B1: E. coli CpxA sensor domain corresponding to residues 31-163 (domain or fragment, UniProt P0AE82 31-163)
chain: DSRQMTELLDSEQRQGLMIEQHVEAELANDPPNDLMWWRRLFRAIDKWAPPGQRLLLVTTEGRVIGAERSEMQIIRNFIGQADNADHPQKKKYGRVELVGPFSVRDGEDNYQLYLIRPASSSQSDFINLLFDR
Take B1: the binding entry is “no binding”.
